Laboratory results from US7405036B2, “Process for reducing pathogens in a biological sample and removing a sample pellet from a sample tube” (priority 2001, dated 2008).
At least one compound was matched to its structure with a doubt left.

System: Campylobacter fetus
Type: cell-based

## NC[C@H]1O[C@H](O[C@H]2[C@H](O)[C@@H](O[C@H]3O[C@H](CO)[C@@H](O)[C@H](N)[C@H]3O)[C@H](N)C[C@@H]2N)[C@H](O)[C@@H](O)[C@@H]1O [kanamycin]
  sensitivity of C. fetus to antibiotic: sensitive
